Results are given in words; binding and its absence hold for the method and conditions named. Some entries that bind do so weakly or less than the wild type. Where a sequence is shown, tags or fusion partners need not be part of it.
Target: T1, N-terminally strep-tagged GrgA (Chlamydia trachomatis) (UniProt O84512)
T1 sequence: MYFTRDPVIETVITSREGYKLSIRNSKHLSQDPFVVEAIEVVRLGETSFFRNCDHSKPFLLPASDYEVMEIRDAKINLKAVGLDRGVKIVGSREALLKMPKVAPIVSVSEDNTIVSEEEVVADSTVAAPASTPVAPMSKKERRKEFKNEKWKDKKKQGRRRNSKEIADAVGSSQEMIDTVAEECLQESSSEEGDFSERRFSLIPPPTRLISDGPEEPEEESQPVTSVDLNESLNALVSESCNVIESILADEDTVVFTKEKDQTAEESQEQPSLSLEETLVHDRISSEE
Test: pull-down

B1: CS-σ^66 (natural protein, C. trachomatis, UniProt P18333 1-571, looked up)
chain: MRMDTLDSQAAEAAQEEEIQRKLEELVTLAKDQGFITYEEINEILPPSFDTPEQIDQVLIFLAGMDVQVLNQADVERQKERKKEAKELEGLAKRSEGTPDDPVRMYLKEMGTVPLLTREEEVEISKRIEKAQVQIERIILRFRYSTKEAVSIAQYLINGKERFDKIVSEKEVEDKTHFLNLLPKLISLLKEEDAYLEERLLALKDPALSKPDQARLNDELEKCRIRTQAYLRCFHCRHNVTEDFGEVVFKAYDSFLQLEQQINDLKARAERNKFAAAKLAAARRKLHKREVAAGRTLEEFKKDVRMLQRWMDKSQEAKKEMVESNLRLVISIAKKYTNRGLSFLDLIQEGNMGLMKAVEKFEYRRGYKFSTYATWWIRQAVTRAIADQARTIRIPVHMIETINKVLRGAKKLMMETGKEPTPEELGEELGFTPDRVREIYKIAQHPISLQAEVGDGGESSFGDFLEDTAVESPAEATGYSMLKDKMKEVLKTLTDRERFVLIHRFGLLDGRPKTLEEVGSAFNVTRERIRQIEAKALRKMRHPIRSKQLRAFLDLLEEEKIGSGKIKSYKN
- binding: binds
